No constants are given. Whether binding was seen depends on the method and setting. Binding seen in cells or lysates may run through a third protein. Here binding means that the protein was enriched with, or labelled near, the bait; the list need not be complete.
Biological target: Myc-BirA*-TbSpef1 (Trypanosoma brucei) (UniProt Q583Z0)
Assay: proximity labelling; BioID in T. brucei procyclic cells with endogenously expressed BirA* fusions of TbSpef1; 50 uM biotin for 24 h; NP-40-resistant cytoskeleton solubilised in 0.4% SDS, 500 mM NaCl; streptavidin beads; LC-MS/MS; wild-type 29-13 cells as control; three experiments (two with the N-terminal fusion, one with the C-terminal fusion)

Sequences of proteins named here, by UniProt entry; tags and fusion partners are left off. A change or cut given only in a name is not applied to a line headed by its entry.
UniProt Q583Z0: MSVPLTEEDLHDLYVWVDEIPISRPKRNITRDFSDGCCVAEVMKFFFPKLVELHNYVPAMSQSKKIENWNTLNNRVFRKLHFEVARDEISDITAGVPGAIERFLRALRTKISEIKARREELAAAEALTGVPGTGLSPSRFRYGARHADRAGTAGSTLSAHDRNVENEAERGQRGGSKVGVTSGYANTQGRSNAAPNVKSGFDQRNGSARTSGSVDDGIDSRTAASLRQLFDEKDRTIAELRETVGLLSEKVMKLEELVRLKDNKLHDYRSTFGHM
UniProt Q57WL4: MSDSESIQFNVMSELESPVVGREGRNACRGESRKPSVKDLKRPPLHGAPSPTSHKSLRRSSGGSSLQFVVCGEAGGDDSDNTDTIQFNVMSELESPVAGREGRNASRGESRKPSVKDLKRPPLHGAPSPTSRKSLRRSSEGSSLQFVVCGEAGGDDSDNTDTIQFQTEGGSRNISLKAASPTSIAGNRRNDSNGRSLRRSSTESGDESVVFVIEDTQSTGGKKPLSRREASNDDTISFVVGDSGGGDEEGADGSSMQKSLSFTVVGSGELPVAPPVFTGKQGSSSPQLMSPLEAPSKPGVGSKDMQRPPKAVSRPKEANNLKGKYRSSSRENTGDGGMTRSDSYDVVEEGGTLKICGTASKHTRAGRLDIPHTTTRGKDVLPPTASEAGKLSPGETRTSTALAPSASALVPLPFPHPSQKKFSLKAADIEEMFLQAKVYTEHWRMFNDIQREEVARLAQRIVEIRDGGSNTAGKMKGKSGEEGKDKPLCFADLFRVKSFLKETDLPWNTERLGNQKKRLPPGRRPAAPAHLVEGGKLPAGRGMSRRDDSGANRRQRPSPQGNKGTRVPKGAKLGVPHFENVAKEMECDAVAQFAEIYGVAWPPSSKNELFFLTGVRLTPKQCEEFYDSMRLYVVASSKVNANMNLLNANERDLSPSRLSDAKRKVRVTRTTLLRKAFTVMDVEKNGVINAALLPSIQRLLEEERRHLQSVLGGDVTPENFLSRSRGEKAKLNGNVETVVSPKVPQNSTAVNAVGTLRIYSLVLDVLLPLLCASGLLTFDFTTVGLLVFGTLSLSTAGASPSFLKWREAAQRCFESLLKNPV
UniProt Q57UR7: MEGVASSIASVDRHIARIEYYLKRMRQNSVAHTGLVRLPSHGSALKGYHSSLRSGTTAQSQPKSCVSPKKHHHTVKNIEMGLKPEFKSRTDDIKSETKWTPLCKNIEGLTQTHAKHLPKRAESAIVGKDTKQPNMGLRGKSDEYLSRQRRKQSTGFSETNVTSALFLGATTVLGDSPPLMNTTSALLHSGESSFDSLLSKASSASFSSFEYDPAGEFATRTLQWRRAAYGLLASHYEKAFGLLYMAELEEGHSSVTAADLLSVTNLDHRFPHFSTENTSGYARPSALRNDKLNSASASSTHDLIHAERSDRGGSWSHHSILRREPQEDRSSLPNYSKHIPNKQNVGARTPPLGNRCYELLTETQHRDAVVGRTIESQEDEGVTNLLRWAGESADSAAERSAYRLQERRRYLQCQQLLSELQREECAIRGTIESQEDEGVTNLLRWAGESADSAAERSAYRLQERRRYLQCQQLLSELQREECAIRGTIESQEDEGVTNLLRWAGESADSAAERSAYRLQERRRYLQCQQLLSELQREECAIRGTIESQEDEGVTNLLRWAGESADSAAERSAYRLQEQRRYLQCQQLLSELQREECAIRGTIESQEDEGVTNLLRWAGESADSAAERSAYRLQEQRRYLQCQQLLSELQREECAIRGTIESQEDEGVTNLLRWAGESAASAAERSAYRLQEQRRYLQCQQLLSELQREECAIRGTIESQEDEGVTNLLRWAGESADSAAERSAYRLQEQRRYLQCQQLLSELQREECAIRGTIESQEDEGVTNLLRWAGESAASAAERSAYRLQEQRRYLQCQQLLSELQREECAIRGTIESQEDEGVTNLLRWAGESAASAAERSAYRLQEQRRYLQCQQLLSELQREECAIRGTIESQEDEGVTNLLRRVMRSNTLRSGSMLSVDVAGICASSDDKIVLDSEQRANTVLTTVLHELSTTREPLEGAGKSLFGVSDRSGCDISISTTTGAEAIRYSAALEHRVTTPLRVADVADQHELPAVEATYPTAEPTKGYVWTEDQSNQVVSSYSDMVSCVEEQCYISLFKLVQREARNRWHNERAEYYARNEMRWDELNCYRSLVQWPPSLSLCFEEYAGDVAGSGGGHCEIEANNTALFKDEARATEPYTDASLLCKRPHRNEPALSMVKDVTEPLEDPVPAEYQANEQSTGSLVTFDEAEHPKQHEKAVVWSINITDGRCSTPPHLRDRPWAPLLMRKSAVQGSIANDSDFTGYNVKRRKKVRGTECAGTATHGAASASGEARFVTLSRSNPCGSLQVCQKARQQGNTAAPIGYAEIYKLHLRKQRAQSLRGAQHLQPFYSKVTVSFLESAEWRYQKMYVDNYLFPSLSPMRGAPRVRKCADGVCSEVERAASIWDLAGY
UniProt Q388X1: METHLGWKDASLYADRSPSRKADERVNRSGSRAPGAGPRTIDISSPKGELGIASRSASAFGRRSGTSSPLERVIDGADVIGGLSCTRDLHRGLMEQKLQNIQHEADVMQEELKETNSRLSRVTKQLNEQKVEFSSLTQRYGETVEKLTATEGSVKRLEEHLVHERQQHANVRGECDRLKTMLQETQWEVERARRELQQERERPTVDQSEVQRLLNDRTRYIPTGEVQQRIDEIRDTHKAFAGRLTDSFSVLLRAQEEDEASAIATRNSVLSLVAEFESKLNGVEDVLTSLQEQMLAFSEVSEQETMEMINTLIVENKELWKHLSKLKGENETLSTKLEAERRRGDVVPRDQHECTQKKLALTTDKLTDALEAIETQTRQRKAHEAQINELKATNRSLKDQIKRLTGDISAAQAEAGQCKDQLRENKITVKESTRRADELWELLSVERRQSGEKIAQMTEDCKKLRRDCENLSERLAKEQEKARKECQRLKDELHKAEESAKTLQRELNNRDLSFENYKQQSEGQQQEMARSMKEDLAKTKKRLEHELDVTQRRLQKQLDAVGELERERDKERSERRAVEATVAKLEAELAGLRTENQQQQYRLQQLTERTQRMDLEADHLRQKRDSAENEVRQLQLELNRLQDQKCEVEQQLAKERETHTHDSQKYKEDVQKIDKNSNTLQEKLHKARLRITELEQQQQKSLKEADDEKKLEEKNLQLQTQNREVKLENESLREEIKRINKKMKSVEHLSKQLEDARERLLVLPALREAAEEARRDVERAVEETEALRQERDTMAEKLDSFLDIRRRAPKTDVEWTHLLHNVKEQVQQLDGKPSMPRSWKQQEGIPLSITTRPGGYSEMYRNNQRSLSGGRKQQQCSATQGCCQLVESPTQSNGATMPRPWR
UniProt Q387D0: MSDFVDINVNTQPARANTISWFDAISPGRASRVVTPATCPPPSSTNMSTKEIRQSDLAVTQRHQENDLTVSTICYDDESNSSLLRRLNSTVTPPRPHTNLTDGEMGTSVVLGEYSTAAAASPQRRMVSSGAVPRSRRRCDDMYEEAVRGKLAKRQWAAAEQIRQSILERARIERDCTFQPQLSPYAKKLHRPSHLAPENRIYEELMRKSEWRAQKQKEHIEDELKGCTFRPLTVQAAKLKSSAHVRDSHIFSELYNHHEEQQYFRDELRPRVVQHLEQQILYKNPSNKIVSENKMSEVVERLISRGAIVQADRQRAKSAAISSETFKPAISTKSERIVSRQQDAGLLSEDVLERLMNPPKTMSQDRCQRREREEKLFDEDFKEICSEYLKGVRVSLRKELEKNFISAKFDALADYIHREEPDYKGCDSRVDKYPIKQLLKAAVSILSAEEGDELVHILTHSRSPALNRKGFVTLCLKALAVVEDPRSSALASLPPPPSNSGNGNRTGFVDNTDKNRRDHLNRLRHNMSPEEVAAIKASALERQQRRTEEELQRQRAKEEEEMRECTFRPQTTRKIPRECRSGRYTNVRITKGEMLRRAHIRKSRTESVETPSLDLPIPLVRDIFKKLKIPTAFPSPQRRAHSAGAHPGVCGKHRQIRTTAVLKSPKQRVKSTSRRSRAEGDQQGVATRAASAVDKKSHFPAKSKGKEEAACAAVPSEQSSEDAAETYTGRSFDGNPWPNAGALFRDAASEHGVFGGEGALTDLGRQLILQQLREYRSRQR
UniProt Q57ZN6: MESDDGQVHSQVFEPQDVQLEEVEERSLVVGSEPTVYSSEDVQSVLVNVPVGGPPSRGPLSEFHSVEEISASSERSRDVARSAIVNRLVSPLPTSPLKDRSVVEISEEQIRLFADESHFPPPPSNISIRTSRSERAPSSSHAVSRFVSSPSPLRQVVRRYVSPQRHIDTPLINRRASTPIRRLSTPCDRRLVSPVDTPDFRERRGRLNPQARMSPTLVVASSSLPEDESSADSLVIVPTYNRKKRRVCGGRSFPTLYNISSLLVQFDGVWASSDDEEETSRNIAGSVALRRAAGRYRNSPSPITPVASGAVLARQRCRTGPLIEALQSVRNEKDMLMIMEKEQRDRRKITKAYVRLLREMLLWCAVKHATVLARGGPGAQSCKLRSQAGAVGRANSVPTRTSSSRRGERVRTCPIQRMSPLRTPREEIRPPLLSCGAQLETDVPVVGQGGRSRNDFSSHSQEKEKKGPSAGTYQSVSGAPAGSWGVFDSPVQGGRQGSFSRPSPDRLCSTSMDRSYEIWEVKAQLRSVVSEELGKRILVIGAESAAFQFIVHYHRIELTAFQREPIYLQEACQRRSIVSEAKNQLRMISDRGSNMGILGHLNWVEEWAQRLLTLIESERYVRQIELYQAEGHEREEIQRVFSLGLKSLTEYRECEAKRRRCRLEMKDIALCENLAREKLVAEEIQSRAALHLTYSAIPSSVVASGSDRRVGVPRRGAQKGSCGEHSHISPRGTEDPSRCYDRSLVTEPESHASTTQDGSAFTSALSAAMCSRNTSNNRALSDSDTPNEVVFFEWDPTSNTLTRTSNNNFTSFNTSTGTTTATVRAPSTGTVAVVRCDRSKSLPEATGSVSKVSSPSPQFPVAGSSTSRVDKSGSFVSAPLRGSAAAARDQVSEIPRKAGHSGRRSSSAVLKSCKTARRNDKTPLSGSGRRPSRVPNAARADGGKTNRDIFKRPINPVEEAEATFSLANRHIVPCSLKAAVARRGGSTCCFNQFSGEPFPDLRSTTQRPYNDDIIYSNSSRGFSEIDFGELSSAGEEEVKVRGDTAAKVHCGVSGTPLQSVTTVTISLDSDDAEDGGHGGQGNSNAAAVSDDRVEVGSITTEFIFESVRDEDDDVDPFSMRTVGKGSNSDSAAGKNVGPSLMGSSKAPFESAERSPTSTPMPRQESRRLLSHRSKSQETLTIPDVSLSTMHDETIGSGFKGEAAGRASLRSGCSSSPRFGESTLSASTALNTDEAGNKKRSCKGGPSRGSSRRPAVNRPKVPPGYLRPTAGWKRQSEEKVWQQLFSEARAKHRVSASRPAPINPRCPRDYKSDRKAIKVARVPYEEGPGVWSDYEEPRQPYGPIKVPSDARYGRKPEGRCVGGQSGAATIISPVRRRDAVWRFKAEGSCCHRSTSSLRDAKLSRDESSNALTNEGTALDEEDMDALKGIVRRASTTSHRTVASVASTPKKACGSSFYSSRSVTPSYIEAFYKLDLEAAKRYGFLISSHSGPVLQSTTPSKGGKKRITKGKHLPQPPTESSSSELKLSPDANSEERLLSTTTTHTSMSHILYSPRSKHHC
UniProt Q57Y22: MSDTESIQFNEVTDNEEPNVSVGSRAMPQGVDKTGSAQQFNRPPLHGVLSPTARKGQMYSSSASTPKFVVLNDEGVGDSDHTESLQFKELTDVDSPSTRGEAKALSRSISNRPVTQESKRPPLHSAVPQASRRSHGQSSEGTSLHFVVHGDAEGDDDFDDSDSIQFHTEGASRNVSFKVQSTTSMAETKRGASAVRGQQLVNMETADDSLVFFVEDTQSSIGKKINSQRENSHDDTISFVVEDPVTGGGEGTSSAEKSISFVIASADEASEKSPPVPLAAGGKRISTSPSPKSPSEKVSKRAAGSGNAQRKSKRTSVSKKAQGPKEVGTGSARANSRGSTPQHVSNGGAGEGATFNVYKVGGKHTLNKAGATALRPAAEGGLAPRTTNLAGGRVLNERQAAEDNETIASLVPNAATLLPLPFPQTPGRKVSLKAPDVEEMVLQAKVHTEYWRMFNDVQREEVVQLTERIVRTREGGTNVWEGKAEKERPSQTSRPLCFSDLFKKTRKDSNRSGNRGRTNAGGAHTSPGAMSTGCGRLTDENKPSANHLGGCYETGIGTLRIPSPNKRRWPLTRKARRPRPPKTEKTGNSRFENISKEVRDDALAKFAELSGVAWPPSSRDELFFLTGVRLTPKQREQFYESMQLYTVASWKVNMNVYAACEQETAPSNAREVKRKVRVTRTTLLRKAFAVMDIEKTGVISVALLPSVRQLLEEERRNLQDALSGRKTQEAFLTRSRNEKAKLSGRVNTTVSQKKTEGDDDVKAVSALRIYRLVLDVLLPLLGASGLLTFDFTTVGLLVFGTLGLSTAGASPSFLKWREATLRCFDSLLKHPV

Substance: Tb927.8.8160 (from UniProt Q57WL4)
- binding: binds

Substance: FAZ10 (from UniProt Q57WE8)
- binding: binds

Substance: TbSAF1 (TbSpef1-Associated Factor 1) (from UniProt Q57UR7)
- binding: binds

Substance: Tb927.10.12720 (from UniProt Q388X1)
- binding: binds

Substance: Tb927.11.1220 (from UniProt Q387D0)
- binding: binds

Substance: Tb927.3.2760 (from UniProt Q57ZN6)
- binding: binds

Substance: Tb927.4.4180 (from UniProt Q57Y22)
- binding: binds

Substance: Tb927.6.1220 (from UniProt Q585C5)
- binding: binds

Substance: Tb927.5.570 (from UniProt Q57VV6)
- binding: binds
